Source: the supplement of paper PMC8104966
The list shows a part of the results. This data set is noisy: repeats of one test often differ as much as different tests do.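 Fusion between ACE2-bearing and full-length-spike-bearing U2OS cells was measured by imaging as the percentage of nuclei with both cell types' fluorescent markers. An inhibitory hit is a non-toxic compound whose fusion z-score is below -3, more than three standard deviations beneath the plate's DMSO wells.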

system: U2OS ACE2 x SARS-CoV-2 spike co-culture; assay: cell-cell fusion (fraction fused) z-score vs plate DMSO control; higher = more fusion; details: 30 µM; 5 h; toxicity class: non-toxic, passed QC

Row | SMILES | cell-cell fusion (z-score)
1 | CC1[C@H](C)OC(=O)CC(O)CC(O)CC(O)CCC(O)C(O)C[C@]2(O)CC(O)C(C(=O)O)C(CC(OC3O[C@H](C)[C@@H](O)[C@H](N)[C@@H]3O)/C=C/C=C/C=C/C=C/CC/C=C/C=C/[C@H](C)[C@H]1O)O2 (some centres undefined) | inactive: 2.66
2 | C[C@]12CC[C@@H]3c4ccc(O)cc4CC[C@H]3[C@@H]1CCC2=O [Aquacrine] | inactive: 1.33
3 | CCN(CC)CCCC(C)Nc1c2ccc(Cl)cc2nc2ccc(OC)cc12.Cl.Cl (centres undefined) [Quinacrine dihydrochloride] | inactive: 0.792
4 | Nc1ccn(C[C@@H](CO)OCP(=O)(O)O)c(=O)n1 [Cidofovir] | inactive: -0.258
5 | C[C@]12CC[C@@H]3c4ccc(O)cc4CC[C@H]3[C@@H]1CC[C@@H]2O [Estradiol] | inactive: 0.966
6 | CCn1cc(C(=O)[O-])c(=O)c2ccc(C)nc21.[Na+] [Nalidixic acid sodium salt] | inactive: 2.93
7 | CCCC(CCC)C(=O)[O-].[Na+] [Valproic acid sodium salt] | inactive: 2.09
8 | CCCC(CCC)C(=O)[O-].[Na+] | inactive: 1.11
9 | CCCC(CCC)C(=O)[O-].[Na+] [Valproic acid sodium] | inactive: 2.56
10 | Br.CN1CCC[C@@H]1Cc1c[nH]c2ccc(CCS(=O)(=O)c3ccccc3)cc12 [Eletriptan] | inactive: 3.22
11 | O=C(O)/C=C/C=C/c1ccc2c(c1)OCO2 | inactive: 1.97
12 | COCc1nc2c(=O)n(C)c(=O)n(CC(C)C)c2[nH]1 [8-Methoxymethyl-3-isobutyl-1-methylxanthine] | inactive: 2.09
13 | COc1cc(OC)c2ccc(=O)oc2c1 | inactive: 1.99
14 | Cc1ccccc1N1C(=O)c2cc(S(=O)ON)c(Cl)cc2NC1C (centres undefined) [Metolazone] | inactive: 2.39
15 | Br.CN1C2CC[C@H]1C[C@@H](OC(=O)C(O)c1ccccc1)C2 (some centres undefined) | inactive: 1.22
16 | OC(Cn1cncn1)(Cn1cncn1)c1ccc(F)cc1F [Fluconazole] | inactive: 2.57
17 | O=C1C(O)=C([C@H]2CC[C@H](c3ccc(Cl)cc3)CC2)C(=O)c2ccccc21 | inactive: 0.767
18 | CN(C)CC/C=C1/c2ccccc2Sc2ccc(Cl)cc21 [Chlorprothixene] | inactive: 1.93
19 | C[C@@H](N)[C@H]1CC[C@H](C(=O)Nc2ccncc2)CC1.Cl.Cl | inactive: 1.61
20 | NC/C=C\C(=O)O [cis-4-Aminocrotonic acid] | inactive: 2.6
21 | COc1cc(C)c2c(c1C=O)Oc1c(c(C)c(O)c3c1C(O)OC3=O)OC2=O (centres undefined) | inactive: 2.02
22 | CC(=O)O[C@H]1C(=O)[C@@]2(C)C([C@H](OC(=O)c3ccccc3)[C@]3(O)C[C@H](O)C(C)=C1C3(C)C)[C@]1(OC(C)=O)CO[C@@H]1C[C@@H]2O (some centres undefined) | inactive: 2.35
23 | C=C1C[C@H]2[C@@H]3CCC4=CC(=O)CC[C@@H]4[C@H]3CC[C@]2(C)[C@@]1(OC(C)=O)C(C)=O [Nestoron] | inactive: 2.7

Row | SMILES | cell-cell fusion (z-score)
24 | Cl.Clc1ccc2nsnc2c1NC1=NCCN1 [Tizanidine hydrochloride] | inactive: 2.75
25 | CCNC(=O)[C@H]1O[C@@H](n2cnc3c(N)ncnc32)C(O)[C@H]1O (some centres undefined) [5'-N-Ethylcarboxamidoadenosine] | inactive: 2.03
26 | Cc1cccc(C)c1OCC(C)N.Cl (centres undefined) [Mexiletene hydrochloride] | inactive: 2.46
27 | Cc1cccc(C)c1OCC(C)N.Cl (centres undefined) | inactive: 1.93
28 | CC(=O)O[C@@]1(C(C)=O)CC[C@H]2[C@@H]3C=C(C)C4=CC(=O)CC[C@]4(C)[C@@H]3CC[C@@]21C [Megestrol Acetate] | inactive: 1.42
29 | C/C(=C\C(=O)Nc1ccccc1C(=O)O)c1ccc2ccccc2c1 | inactive: -1.23
30 | CC(C)N(CCC(C(N)=O)(c1ccccc1)c1ccccn1)C(C)C (centres undefined) [Disopyramide] | inactive: 2.02
31 | CC(C)(N)CO.Cn1c(=O)c2[nH]c(Br)nc2n(C)c1=O | inactive: 2.49
32 | COc1c(-c2ccccc2)oc2cc(O)cc(O)c2c1=O | inactive: 2.87
33 | CS(=O)(=O)N1CCc2c(-c3cnc(N)nc3)nc(N3CCOCC3)nc21 | inactive: 1.29
34 | CC(C)(C(=O)c1cccnc1)c1cccnc1 | inactive: 2.78
35 | CC(C)c1nc(N(C)S(C)(=O)=O)nc(-c2ccc(F)cc2)c1/C=C/[C@@H](O)C[C@@H](O)CC(=O)O [Rosuvastatin] | inactive: -1.18
36 | CC1(C)C=Cc2c(c3c(c4c(=O)c(-c5ccc(O)cc5)coc24)OC(C)(C)CC3)O1 | inactive: 1.27
37 | C#C[C@]1(O)CC[C@H]2[C@@H]3CCC4=CC(=O)CC[C@@H]4[C@H]3CC[C@@]21CC [Levonorgestrel] | inactive: 2.14
38 | Cl.O=C1CN2Cc3c(ccc(Cl)c3Cl)N=C2N1 | inactive: -0.473
39 | CC1CCC2(OC1)OC1CC3C4CC[C@H]5C[C@@H](O)CC[C@]5(C)C4CC(=O)[C@]3(C)C1C2C (some centres undefined) | inactive: 2.42
40 | CN(C(=O)CN(CCO)CC(=O)N(C)C(C)(C)Cc1ccccc1)C(C)(C)Cc1ccccc1 | inactive: 0.483
41 | CC(C)=CCc1c2c(c3occ(-c4ccc(O)cc4)c(=O)c3c1O)C=CC(C)(C)O2 | inactive: 3.04
42 | O=NN(CCCl)C(=O)NC1CCCCC1 [Lomustine] | inactive: 2.51
43 | O=c1oc2cc(O)ccc2s1 | inactive: 1.29
44 | COc1cc(O)c(C(=O)/C=C/c2ccc(OC)c(O)c2)c(OC)c1 | inactive: 2.14
45 | C[C@]12CCC(=O)C=C1CC[C@@H]1[C@@H]2CC[C@@]2(C)[C@H]1CC[C@]2(O)C(=O)CO [Cortexolone] | inactive: 1.37
46 | COc1ccc(COc2cc3oc(=O)c4cc(C(C)O)ccc4c3cc2OC)cc1 (centres undefined) [Palomid 529] | inactive: 1.53

Row | SMILES | cell-cell fusion (z-score)
47 | COc1ccc2nc(SCc3ncc(C)c(OC)c3C)[nH]c2c1 [Omeprazole sulfide] | inactive: 2.48
48 | N=C([NH3+])N1CCc2ccccc2C1.N=C([NH3+])N1CCc2ccccc2C1.O=S(=O)([O-])[O-] [Debrisoquin sulfate] | inactive: 1.08
49 | CCn1c(-c2nonc2N)nc2cnc(Oc3cccc(NC(=O)c4ccc(OCCN5CCOCC5)cc4)c3)cc21 | inactive: -2.39
50 | NC[C@@H]1O[C@H](O[C@H]2[C@@H](O)[C@H](O[C@@H]3[C@@H](O)[C@H](N)C[C@H](N)[C@H]3O[C@H]3O[C@H](CN)[C@@H](O)[C@H](O)[C@H]3N)O[C@@H]2CO)[C@H](N)[C@@H](O)[C@@H]1O.O=S(=O)(O)O.O=S(=O)(O)O.O=S(=O)(O)O [Neomycin sulfate] | inactive: 3.61
51 | COc1cc(Cc2cnc(N)nc2N)cc(OC)c1OC | inactive: 2.21
52 | Cc1cc(O)c(C(=O)N[C@@H](C(=O)N[C@@H]2C(=O)N3C(C(=O)O)=C(CSc4nnnn4C)CS[C@H]23)c2ccc(O)cc2)cn1 [Cefpiramide acid] | inactive: 2.96
53 | O=[N+]([O-])c1ccc(CNc2nc(NCc3cccc(C(F)(F)F)c3)nc3[nH]cnc23)cc1 | active: -3
54 | Cn1cc[nH]c1=S [Methimazole] | inactive: 3.28
55 | CCCCCCOC(=O)/N=C(\N)c1ccc(NCc2nc3cc(C(=O)N(CCC(=O)OCC)c4ccccn4)ccc3n2C)cc1.CS(=O)(=O)O | inactive: 0.941
56 | Cc1cnc(C(=O)NCCc2ccc(S(=O)(=O)NC(=O)NC3CCCCC3)cc2)cn1 [Glipizide] | inactive: 4.3
57 | CCOC(=O)N[C@@H]1CC[C@@H]2[C@@H](C1)C[C@H]1C(=O)O[C@H](C)[C@H]1[C@H]2/C=C/c1ccc(-c2cccc(F)c2)cn1.O=S(=O)(O)O [Vorapaxar sulfate] | active: -5.27
58 | Cc1ccc(NC(=O)C2(c3ccc4c(c3)OC(F)(F)O4)CC2)nc1-c1cccc(C(=O)O)c1 [Lumacaftor] | inactive: 3.8
59 | CCOc1ccc(C(=O)c2ccc(O)c(O)c2O)cc1 | inactive: 1.19
60 | COc1cc([C@@H]2c3cc4c(cc3[C@H](O)[C@H]3COC(=O)[C@@H]23)OCO4)cc(OC)c1OC | inactive: -0.222
61 | O=C1C[C@@H](c2ccc(O)cc2)Oc2cc(O)cc(O)c21 | inactive: 2.58
62 | CC(C)CCCC(C)C1CCC2C3CC[C@H]4C[C@H](O)CC[C@]4(C)C3CC[C@]12C (some centres undefined) | inactive: 2.35
63 | CC1=CC(=O)c2c(O)cccc2C1=O | inactive: 1.78
64 | Cc1cc(-n2c(=O)[nH]c(=O)n(C)c2=O)ccc1Oc1ccc(SC(F)(F)F)cc1 | inactive: 1.86
65 | C1CCN2C[C@@H]3C[C@H](CN4CCCC[C@@H]34)[C@H]2C1.O=S(=O)(O)O | inactive: 0.195
66 | CC(C)(C)NCC(O)COc1cccc2c1C[C@H](O)[C@H](O)C2 (some centres undefined) | inactive: 0.194
67 | Cn1c(=O)c2c(nc(/C=C/c3cccc(Cl)c3)n2C)n(C)c1=O [8-(3-Chlorostyryl)caffeine] | inactive: 2.76
68 | NC(=O)CS(=O)C(c1ccccc1)c1ccccc1 (centres undefined) | inactive: 2.23
69 | CC(=O)Nc1nc(C)c(-c2ccc(Cl)c(S(=O)(=O)NCCO)c2)s1 | inactive: 0.284

An excerpt of these results, with tabs:
Row	SMILES	cell-cell fusion (z-score)
55	CCCCCCOC(=O)/N=C(\N)c1ccc(NCc2nc3cc(C(=O)N(CCC(=O)OCC)c4ccccn4)ccc3n2C)cc1.CS(=O)(=O)O	inactive: 0.941
56	Cc1cnc(C(=O)NCCc2ccc(S(=O)(=O)NC(=O)NC3CCCCC3)cc2)cn1 [Glipizide]	inactive: 4.3
57	CCOC(=O)N[C@@H]1CC[C@@H]2[C@@H](C1)C[C@H]1C(=O)O[C@H](C)[C@H]1[C@H]2/C=C/c1ccc(-c2cccc(F)c2)cn1.O=S(=O)(O)O [Vorapaxar sulfate]	active: -5.27
58	Cc1ccc(NC(=O)C2(c3ccc4c(c3)OC(F)(F)O4)CC2)nc1-c1cccc(C(=O)O)c1 [Lumacaftor]	inactive: 3.8
59	CCOc1ccc(C(=O)c2ccc(O)c(O)c2O)cc1	inactive: 1.19
60	COc1cc([C@@H]2c3cc4c(cc3[C@H](O)[C@H]3COC(=O)[C@@H]23)OCO4)cc(OC)c1OC	inactive: -0.222
61	O=C1C[C@@H](c2ccc(O)cc2)Oc2cc(O)cc(O)c21	inactive: 2.58
62	CC(C)CCCC(C)C1CCC2C3CC[C@H]4C[C@H](O)CC[C@]4(C)C3CC[C@]12C (some centres undefined)	inactive: 2.35
63	CC1=CC(=O)c2c(O)cccc2C1=O	inactive: 1.78
64	Cc1cc(-n2c(=O)[nH]c(=O)n(C)c2=O)ccc1Oc1ccc(SC(F)(F)F)cc1	inactive: 1.86
65	C1CCN2C[C@@H]3C[C@H](CN4CCCC[C@@H]34)[C@H]2C1.O=S(=O)(O)O	inactive: 0.195
66	CC(C)(C)NCC(O)COc1cccc2c1C[C@H](O)[C@H](O)C2 (some centres undefined)	inactive: 0.194
67	Cn1c(=O)c2c(nc(/C=C/c3cccc(Cl)c3)n2C)n(C)c1=O [8-(3-Chlorostyryl)caffeine]	inactive: 2.76
68	NC(=O)CS(=O)C(c1ccccc1)c1ccccc1 (centres undefined)	inactive: 2.23
